Consider one molecule from patent US11896678B2, “Compositions and methods for treatment of peroxisome proliferator-activated receptor gamma (PPARG) activated cancer” (THE BROAD INSTITUTE, INC., priority 2017, dated 2024).

By UniProt entry, the sequences of proteins in these tests, tags left out. Where a name states a change or a piece, a line headed by the entry shows the natural chain unless it says otherwise.
UniProt O18924: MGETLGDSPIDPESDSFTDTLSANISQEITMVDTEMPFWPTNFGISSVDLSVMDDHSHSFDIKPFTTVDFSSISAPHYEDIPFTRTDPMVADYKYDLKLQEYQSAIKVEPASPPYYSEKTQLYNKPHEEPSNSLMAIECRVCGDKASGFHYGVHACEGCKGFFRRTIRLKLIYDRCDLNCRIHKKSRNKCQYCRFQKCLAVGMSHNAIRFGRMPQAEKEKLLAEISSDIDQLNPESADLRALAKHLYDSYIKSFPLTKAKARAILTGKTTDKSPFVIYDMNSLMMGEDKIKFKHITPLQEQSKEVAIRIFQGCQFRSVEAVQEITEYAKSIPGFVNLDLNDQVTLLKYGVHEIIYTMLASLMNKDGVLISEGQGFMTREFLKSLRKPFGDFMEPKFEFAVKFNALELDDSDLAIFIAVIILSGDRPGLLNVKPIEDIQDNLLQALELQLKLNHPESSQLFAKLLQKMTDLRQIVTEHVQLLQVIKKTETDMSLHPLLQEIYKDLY
UniProt Q15648: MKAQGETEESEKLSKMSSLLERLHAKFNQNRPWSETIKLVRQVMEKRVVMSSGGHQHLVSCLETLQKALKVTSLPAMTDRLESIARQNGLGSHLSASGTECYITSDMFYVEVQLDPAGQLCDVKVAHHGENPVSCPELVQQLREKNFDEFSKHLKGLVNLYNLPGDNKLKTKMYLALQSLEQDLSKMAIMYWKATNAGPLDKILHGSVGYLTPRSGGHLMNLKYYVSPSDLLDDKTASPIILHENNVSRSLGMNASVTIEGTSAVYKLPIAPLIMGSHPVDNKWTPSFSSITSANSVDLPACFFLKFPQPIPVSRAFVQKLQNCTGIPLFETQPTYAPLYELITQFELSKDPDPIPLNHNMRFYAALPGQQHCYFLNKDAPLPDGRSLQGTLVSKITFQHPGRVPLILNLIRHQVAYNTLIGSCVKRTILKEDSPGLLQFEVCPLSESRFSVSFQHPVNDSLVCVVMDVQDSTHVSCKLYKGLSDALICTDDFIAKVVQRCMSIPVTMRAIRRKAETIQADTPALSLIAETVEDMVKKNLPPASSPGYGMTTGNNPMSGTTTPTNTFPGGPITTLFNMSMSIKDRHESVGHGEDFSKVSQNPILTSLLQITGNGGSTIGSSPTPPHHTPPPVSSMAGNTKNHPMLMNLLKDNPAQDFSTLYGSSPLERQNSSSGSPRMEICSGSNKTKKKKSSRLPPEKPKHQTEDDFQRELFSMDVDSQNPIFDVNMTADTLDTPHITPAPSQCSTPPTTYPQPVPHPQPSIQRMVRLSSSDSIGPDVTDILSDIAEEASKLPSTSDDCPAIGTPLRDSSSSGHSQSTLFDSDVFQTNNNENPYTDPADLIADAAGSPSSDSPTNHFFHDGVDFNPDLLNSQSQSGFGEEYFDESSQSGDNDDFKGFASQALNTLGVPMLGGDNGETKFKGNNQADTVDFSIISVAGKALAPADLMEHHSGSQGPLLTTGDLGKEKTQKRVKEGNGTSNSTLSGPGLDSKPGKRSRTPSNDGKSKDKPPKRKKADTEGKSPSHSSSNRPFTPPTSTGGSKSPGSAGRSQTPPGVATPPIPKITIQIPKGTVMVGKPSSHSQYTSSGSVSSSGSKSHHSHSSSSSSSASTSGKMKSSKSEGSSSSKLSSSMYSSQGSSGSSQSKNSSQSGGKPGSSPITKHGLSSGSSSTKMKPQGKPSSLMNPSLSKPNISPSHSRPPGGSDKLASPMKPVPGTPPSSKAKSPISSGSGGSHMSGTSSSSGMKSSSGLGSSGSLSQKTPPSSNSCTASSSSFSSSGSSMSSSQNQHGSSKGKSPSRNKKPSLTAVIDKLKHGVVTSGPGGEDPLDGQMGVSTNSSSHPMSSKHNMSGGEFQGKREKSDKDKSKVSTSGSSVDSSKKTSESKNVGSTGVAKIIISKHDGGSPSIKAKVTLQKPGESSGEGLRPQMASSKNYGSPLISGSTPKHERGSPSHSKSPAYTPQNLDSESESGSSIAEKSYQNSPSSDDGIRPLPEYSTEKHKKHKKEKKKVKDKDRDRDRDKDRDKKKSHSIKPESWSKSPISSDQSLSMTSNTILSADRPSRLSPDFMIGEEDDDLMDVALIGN

In the assay the target is Terbium-labeled PPARG ligand binding domain (PPARG-LBD) (Macaca mulatta (Rhesus macaque)) (UniProt O18924). Description: TR-FRET coactivator assay: PPARG ligand-binding domain and fluorescently-labeled TRAP220/MED1 peptide, with full agonists.

Results are given in words; binding and its absence hold for the method and conditions named. Some entries that bind do so weakly or less than the wild type.

Regarding NTKNHPMLMNLLKDNPAQD (peptide, UniProt Q15648 638-656, looked up, fluorescein-labeled (site not stated)) [fluorescently-labeled TRAP220 (MED1) coactivator peptide], the binding entry was “binds”.
